The numbers were not newly measured in US20090203763A1, “SUBSTITUTED BENZHYDRYLETHERS” (AUSPEX PHARMACEUTICALS, INC., priority 2008, published 2009), which cites them from elsewhere.

Sequences of proteins named here, by UniProt entry; tags and fusion partners are left off.
UniProt P10635, whole entry: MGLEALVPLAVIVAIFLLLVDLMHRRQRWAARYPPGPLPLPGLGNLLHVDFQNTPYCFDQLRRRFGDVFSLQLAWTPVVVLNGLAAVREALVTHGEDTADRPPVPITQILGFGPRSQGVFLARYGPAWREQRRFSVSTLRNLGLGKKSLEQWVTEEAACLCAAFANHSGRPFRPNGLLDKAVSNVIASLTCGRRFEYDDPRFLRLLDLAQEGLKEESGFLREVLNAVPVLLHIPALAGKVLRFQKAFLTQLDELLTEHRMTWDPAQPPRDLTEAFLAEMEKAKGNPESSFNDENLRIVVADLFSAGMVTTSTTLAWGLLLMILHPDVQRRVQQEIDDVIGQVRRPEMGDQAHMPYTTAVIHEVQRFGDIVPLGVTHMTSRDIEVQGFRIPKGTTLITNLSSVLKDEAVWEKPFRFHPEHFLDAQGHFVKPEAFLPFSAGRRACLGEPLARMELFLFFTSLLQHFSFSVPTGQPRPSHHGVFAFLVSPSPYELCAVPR

Molecules are shown by their SMILES.

In this data set the target is P450 cytochrome CYP2D6 (Homo sapiens, UniProt P10635). The conditions noted are these: Hamelin et al. 1998; cited from earlier work.

`CN1CCC[C@@H]1CCO[C@](C)(c1ccccc1)c1ccc(Cl)cc1` [Clemastine, 2-[2-[1-(4-chlorophenyl)-1-phenyl-ethoxy]ethyl]-1-methyl-pyrrolidine]: the “inhibition of CYP2D6” value is recorded as “potent inhibitor”.
